Source: PubChem BioAssay AID1259424 (University of Nebraska Medical Center, 2018)

- Screen: 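Seek colon cancer survival genes behaving like KSR1, using a six-gene signature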 (primary screen)
- Cell system: human HCT116 colon cancer cells
- Reagents: siRNA pool against human genes, 50 nM
- Measurement: 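Six signature mRNAs by branched-DNA multiplex assay, scaled to two housekeeping genes and non-targeting median, log2; matched to mean KSR1 knockdown profile by Pearson correlation and euclidean distance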
- Direction: mean correlation with KSR1 profile: higher = expression change more like KSR1 knockdown; mean distance from KSR1 profile: higher = expression change less like KSR1 knockdown
Here is a random part of about 14,000 reagents. 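Higher correlation or smaller distance means closer resemblance to KSR1 loss; control wells, including KSR1 knockdowns, recur on many plates.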 Further read-outs or replicates are left out here. Not stated in the record: the time to read-out.

PCNT (pericentrin) → mean correlation with KSR1 profile = -0.505; mean distance from KSR1 profile = 3.79
RABL2A (RAB, member of RAS oncogene family like 2A) → mean correlation with KSR1 profile = 0.689; mean distance from KSR1 profile = 1.7
CLNS1A (chloride nucleotide-sensitive channel 1A) → mean correlation with KSR1 profile = -0.276; mean distance from KSR1 profile = 2.61
RAB24 (RAB24, member RAS oncogene family) → mean correlation with KSR1 profile = 0.204; mean distance from KSR1 profile = 1.67
SERTAD4 (SERTA domain containing 4) → mean correlation with KSR1 profile = -0.0609; mean distance from KSR1 profile = 1.89
CD177 (CD177 molecule) → mean correlation with KSR1 profile = 0.223; mean distance from KSR1 profile = 1.61
PDCD6 (programmed cell death 6) → mean correlation with KSR1 profile = -0.0269; mean distance from KSR1 profile = 2.13
SOX7 (SRY-box transcription factor 7) → mean correlation with KSR1 profile = 0.748; mean distance from KSR1 profile = 2.74
PODXL2 (podocalyxin like 2) → mean correlation with KSR1 profile = -0.92; mean distance from KSR1 profile = 2.27
IRAK2 (interleukin 1 receptor associated kinase 2) → mean correlation with KSR1 profile = -0.532; mean distance from KSR1 profile = 3.51
SDCCAG8 (SHH signaling and ciliogenesis regulator SDCCAG8) → mean correlation with KSR1 profile = -0.018; mean distance from KSR1 profile = 1.49
PRAMEF1 (PRAME family member 1) → mean correlation with KSR1 profile = 0.137; mean distance from KSR1 profile = 1.74
CUL9 (cullin 9) → mean correlation with KSR1 profile = 0.315; mean distance from KSR1 profile = 1.94
PEX13 (peroxisomal biogenesis factor 13) → mean correlation with KSR1 profile = -0.488; mean distance from KSR1 profile = 1.45
TUBE1 (tubulin epsilon 1) → mean correlation with KSR1 profile = -0.0417; mean distance from KSR1 profile = 1.78
FPGS (folylpolyglutamate synthase) → mean correlation with KSR1 profile = -0.763; mean distance from KSR1 profile = 2.03
RNF115 (ring finger protein 115) → mean correlation with KSR1 profile = -0.504; mean distance from KSR1 profile = 2.32
API5 (apoptosis inhibitor 5) → mean correlation with KSR1 profile = -0.476; mean distance from KSR1 profile = 2.73
ELN (elastin) → mean correlation with KSR1 profile = -0.0333; mean distance from KSR1 profile = 1.92
